According to publication PMC8800262:
These are yes or no findings as the source states them, for the method shown. Binding seen in cells or lysates may run through a third protein. Some results given as binding are weak or reduced against the parent protein; the word gives no strength.

Target: T1, nuclear factor erythroid 2-related factor 2 (mouse (endogenous in HT-22)) (UniProt Q60795)
T1 sequence: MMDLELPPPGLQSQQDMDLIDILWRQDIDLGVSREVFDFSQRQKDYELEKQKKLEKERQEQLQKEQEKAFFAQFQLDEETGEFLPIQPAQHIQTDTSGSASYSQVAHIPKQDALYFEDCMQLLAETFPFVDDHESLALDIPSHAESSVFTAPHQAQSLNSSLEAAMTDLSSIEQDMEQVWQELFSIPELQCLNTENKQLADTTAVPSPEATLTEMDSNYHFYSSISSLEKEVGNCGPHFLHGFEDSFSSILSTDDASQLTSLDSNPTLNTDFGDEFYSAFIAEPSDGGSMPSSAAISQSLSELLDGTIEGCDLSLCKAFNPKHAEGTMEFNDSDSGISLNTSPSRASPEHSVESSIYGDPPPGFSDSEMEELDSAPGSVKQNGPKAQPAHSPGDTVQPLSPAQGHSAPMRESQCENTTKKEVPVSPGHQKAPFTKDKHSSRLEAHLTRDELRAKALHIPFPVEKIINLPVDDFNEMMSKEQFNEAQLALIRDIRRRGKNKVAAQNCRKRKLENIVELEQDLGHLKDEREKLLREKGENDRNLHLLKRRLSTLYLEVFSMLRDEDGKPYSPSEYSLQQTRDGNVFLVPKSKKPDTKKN
Experiment: co-IP; total protein of HT-22 cells treated with or without eriodictyol (8 uM); anti-Nrf2 or anti-vitamin D receptor antibody on Protein A/G magnetic beads; binding buffer 50 mM Tris-HCl, 150 mM NaCl, 0.1%-0.5 detergent (Triton X-100 and Tween 20), pH 7.5; 1 h at room temperature; Western blot with anti-vitamin D receptor or anti-Nrf2 antibody

binding: binds
B1: vitamin D receptor (protein, UniProt P48281 1-422)
chain: MEAMAASTSLPDPGDFDRNVPRICGVCGDRATGFHFNAMTCEGCKGFFRRSMKRKALFTCPFNGDCRITKDNRRHCQACRLKRCVDIGMMKEFILTDEEVQRKREMIMKRKEEEALKDSLRPKLSEEQQHIIAILLDAHHKTYDPTYADFRDFRPPIRADVSTGSYSPRPTLSFSGDSSSNSDLYTPSLDMMEPASFSTMDLNEEGSDDPSVTLDLSPLSMLPHLADLVSYSIQKVIGFAKMIPGFRDLTSDDQIVLLKSSAIEVIMLRSNQSFTLDDMSWDCGSQDYKYDITDVSRAGHTLELIEPLIKFQVGLKKLNLHEEEHVLLMAICIVSPDRPGVQDAKLVEAIQDRLSNTLQTYIRCRHPPPGSHQLYAKMIQKLADLRSLNEEHSKQYRSLSFQPENSMKLTPLVLEVFGNEIS
